# Results published in the supplement of paper PMC3334620.
# The full ranking holds about 33,000 sequences; the median of “E-score (-0.5 to 0.5)” is about -0.0014, and the highest 2% start at about 0.25. Some of the results follow.
# Target: T1, Cad1 (UniProt P24813)
# T1 sequence: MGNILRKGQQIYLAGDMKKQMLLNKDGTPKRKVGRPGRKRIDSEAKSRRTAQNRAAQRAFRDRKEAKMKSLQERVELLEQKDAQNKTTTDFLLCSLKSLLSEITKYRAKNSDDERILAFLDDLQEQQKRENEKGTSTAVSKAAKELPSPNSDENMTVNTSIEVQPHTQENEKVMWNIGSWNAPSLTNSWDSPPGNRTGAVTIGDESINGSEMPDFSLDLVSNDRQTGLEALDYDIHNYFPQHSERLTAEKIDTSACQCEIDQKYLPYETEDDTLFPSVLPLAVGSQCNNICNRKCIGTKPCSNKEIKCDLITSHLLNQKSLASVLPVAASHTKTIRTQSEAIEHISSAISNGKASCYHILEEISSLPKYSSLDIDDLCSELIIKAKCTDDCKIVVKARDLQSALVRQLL
# Test: PBM E-score (8-mer binding enrichment) (E-score (-0.5 to 0.5)); higher = stronger / more preferred TF binding
# Conditions: protein concentration: 100 nM; construct: GST-full length
# Method in brief: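 Universal all-10-mer Agilent arrays, double-stranded by primer extension on fresh or once-stripped slides, were probed with about 100-200 nM GST-tagged yeast transcription factors made by PURExpress. Fluorescent anti-GST detected bound protein, and masliner normalised the scans. E-scores from the Universal PBM Analysis Suite were given to each ungapped eight-base word pooled with its reverse complement.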
row,Sequence,PBM E-score
1,CTGTCTGA,-0.185
2,GAATTATC,0.207
3,CACAAAAC,0.125
4,CCCCATCC,0.0372
5,TTAGATAA,0.105
6,CGTGCATA,0.0661
7,ATAAGGTG,0.163
8,GACATCGC,0.0879
9,ATGGTCCA,-0.142
10,TCGGACAA,0.225
11,CCCTAGGA,-0.1
12,AGGTACAT,-0.172
13,CTCGTATC,0.131
14,CGGTTTCC,0.121
15,CAACAGTC,0.0156
16,AATCACGA,0.0219
17,ACACCGAT,-0.0734
18,CTCGCGTC,0.0998
19,CAATATAC,0.0244
20,AGTTGACA,0.119
21,ACCGCATA,0.0299
22,CCGGCGTC,0.0817
23,ACTATTCT,0.0403
24,CGTGCTTA,0.175
25,GCCATCCC,0.0332

# Some values from the list.
# Value for CGTGCTTA under PBM E-score: 0.175
# Value for ACTATTCT under PBM E-score: 0.0403
# Value for ATGGTCCA under PBM E-score: -0.142

# (list continues)

row,Sequence,PBM E-score
1,CCTACATC,-0.109
2,GCTCATCA,-0.0777
3,ACAGACAC,0.122
4,AGAATTGC,-0.0819
5,CAAGCTGC,-0.00852
6,CCAAGGAC,-0.171
7,CAATAACA,-0.0158
8,AGTGCTAC,-0.178
9,AGAACGCA,0.00375
10,TCGATCAA,0.0767
11,TGAGCAAA,0.143
12,CAAAGCAA,0.129
13,CGAGCGGC,0.0466
14,CGATGCCG,-0.137
15,CCCATCCA,-0.073
16,GCCGGCCA,0.108
17,ACTCAACC,0.194
18,GAGCTAAC,-0.133
19,AGTCAGTC,-0.08
20,AATTCCGG,0.163
21,ACCCCAAT,0.0428
22,ACGAACCC,-0.109
23,CCGAAGAA,0.00754
24,TATACTCA,0.0376
25,AGTCAGTA,0.0711

# Four entries from above, bar-delimited.
row | Sequence | PBM E-score
17 | ACTCAACC | 0.194
18 | GAGCTAAC | -0.133
19 | AGTCAGTC | -0.08
20 | AATTCCGG | 0.163

# A stretch from further up:
row,Sequence,PBM E-score
21,ACCGCATA,0.0299
22,CCGGCGTC,0.0817

# More results:

row,Sequence,PBM E-score
1,ATAATTTC,0.154
2,GCTCCTCA,-0.296
3,ATAGGAAA,0.141
4,AGTCCTTC,-0.175
5,GCCAAACC,-0.105
6,GTGAGACA,-0.00625
7,ATCCTATC,0.0221
8,AGACAATC,0.148
9,AAAGCTCA,-0.177
10,GAAACCCA,0.0394
11,CTTAACAA,0.0494
12,AGTCCCGG,-0.148
13,AGCTGCGG,0.0147
14,GCGCTATA,0.16
15,CACGTTAA,-0.00912
16,TGAGACCA,0.0764
17,ATCTGTTG,-0.0302
18,CTGCACGC,0.0791
19,AAGCCTAG,0.0255
20,ACAGATCG,0.048
21,AGTAGAGA,-0.0661
22,CTAGGACC,-0.231
23,CCCGCGTA,0.0387
24,CTCGGTAC,-0.313
25,TACCGGAA,0.145

row,Sequence,PBM E-score
1,CCCGACAA,0.0776
2,AGTATAAA,0.199
3,CGTCTGTA,0.0482
4,GCGCTCAC,0.209
5,ACAATGGG,-0.0249
6,GAGCGGGC,-0.114
7,AGGATGAA,-0.0458
8,ATGGGCAC,0.104
9,CTTGAGCA,-0.193
10,ACGGCAAT,0.214
11,CATTTGAC,0.0466
12,CCGACGGA,0.0592
13,GTAGGACA,0.092
14,TCACGTGA,0.125
15,GTCCCAAA,0.0565
16,CTAACTAC,-0.0962
17,CAGGCTCG,0.0252
18,GGAACAAA,0.152
19,GAAAATTA,0.13
20,GCGACTCA,-0.0957
21,AGGCGAGA,-0.181
22,AGAATGAG,-0.0793
23,ACAAGAAA,0.158
24,ACCAGGAC,0.0899
25,GACACAAA,0.119

row,Sequence,PBM E-score
1,CCTTTCTA,-0.105
2,CGTAGGAC,-0.112
3,CGCGATAC,0.134
4,AATCCATA,0.0973
5,CGGAATCC,-0.075
6,CTCGTGCA,-0.0521
7,CGACTAGA,-0.0573
8,CCAGGCTA,-0.219
9,ACTCACCG,-0.179
10,CCACGTCG,-0.0551
11,AGAATCAC,0.0307
12,GCTTACTA,0.426
13,ACAACGGG,0.0974
14,GAACATCA,-0.109
15,GCTCGTCC,0.124
16,ATGTGTAA,0.0779
17,CAGTGCGC,-0.0964
18,ACGACGAC,-0.241
19,CGTGATTA,0.303
20,GAGTTAAC,-0.0189
21,CCAGGCGC,-0.0648
22,AGGCTATG,-0.122
23,CTTAACGC,-0.106
24,ACCCCAGG,-0.297
25,CTGGAACC,0.0718

row,Sequence,PBM E-score
1,AACCAGCT,0.149
2,AGTCAGAT,0.00648
3,GAAGCATC,-0.0878
4,CCAATGGA,-0.0231
5,CAGCTGGC,0.0175
6,CGTTGACC,0.0989
7,AGCCGCCG,0.0553
8,AACACCTG,0.123
9,ATACTGAA,0.11
10,AAGGAACG,0.00462
11,ATCATACG,0.182
12,ACTTCAGG,-0.041
13,AGAACATA,-0.0622
14,ATACGAGC,0.133
15,CATACTGG,-0.0633
16,GTTCTGTA,0.0365
17,CATGCTGA,0.0973
18,CAACGCCA,0.00804
19,TTCCCAAA,0.161
20,TAAAAAGA,0.0113
21,ACGTGCGC,0.122
22,ATCCGGCC,0.0315
23,CTTGACAC,-0.0541
24,GCCCTATA,-0.0678
25,GATTGAAA,0.114

row,Sequence,PBM E-score
1,AGCCTTAG,-0.085
2,ACATTATG,0.0893
3,AGGTGTGC,-0.0746
4,CCCGTGCA,-0.216
5,CCTCAGAG,-0.296
6,CGAACATC,-0.0113
7,AGTCTGGC,-0.0919
8,GTCCCAGA,-0.169
9,ACGACAGT,-0.0887
10,AATACTCA,0.0527
11,TACGCGCA,0.225
12,ATAGTGGC,0.0417
13,ATAGGGGG,-0.258
14,AAGGCTGG,-0.128
15,CCCAAAAG,0.0388
16,CTCACGAC,-0.116
17,AGTGGAGA,0.109
18,ACCGCAGA,-0.0544
19,GCTTATAA,0.235
20,AGGTCTAT,-0.0282
21,AGATCAAT,-0.021
22,TCTCGAGA,0.146
